{"source": "patent US11472855", "about": "“RNA-binding protein” (Panitch Schwarze Belisario & Nadel LLP)", "assay_in_all_cases": "EMSA", "key": {"hPUF_MT(1-6-5-6-5-6-7-8)": {"tested_on": "T1, hPUF_MT(1-6-5-6-5-6-7-8)", "T1 sequence": "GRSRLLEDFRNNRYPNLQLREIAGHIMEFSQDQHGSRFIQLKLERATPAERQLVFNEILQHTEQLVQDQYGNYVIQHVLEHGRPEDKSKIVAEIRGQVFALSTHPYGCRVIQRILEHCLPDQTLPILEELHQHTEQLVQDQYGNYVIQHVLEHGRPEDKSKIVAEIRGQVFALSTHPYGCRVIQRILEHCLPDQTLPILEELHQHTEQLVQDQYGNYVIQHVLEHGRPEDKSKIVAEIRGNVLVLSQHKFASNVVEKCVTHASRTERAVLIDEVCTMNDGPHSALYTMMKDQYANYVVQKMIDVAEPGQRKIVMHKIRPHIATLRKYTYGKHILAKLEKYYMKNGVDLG", "conditions": "printed \"Kd: 50 to 10 nM\", about one-tenth of WT; 4 C, 100 mM NaCl; purified recombinant protein; label: Alexa680 at 5' and 3'"}, "[1]": {"tested_on": "T2, hPUF_MT(R1_Q16R, R3→R5, R4→R6) R1 repeat Q16R", "T2 sequence": "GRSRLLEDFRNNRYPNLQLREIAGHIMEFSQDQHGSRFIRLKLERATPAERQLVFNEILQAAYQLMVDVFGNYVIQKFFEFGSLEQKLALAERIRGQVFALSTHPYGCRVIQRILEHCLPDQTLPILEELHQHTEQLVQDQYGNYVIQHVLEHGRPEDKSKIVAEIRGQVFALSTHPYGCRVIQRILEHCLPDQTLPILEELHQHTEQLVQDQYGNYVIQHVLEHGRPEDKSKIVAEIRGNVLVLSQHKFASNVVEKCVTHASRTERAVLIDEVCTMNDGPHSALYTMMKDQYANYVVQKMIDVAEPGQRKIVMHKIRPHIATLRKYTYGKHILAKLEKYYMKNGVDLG", "conditions": "C>U>>G>A, purified recombinant protein, label: Alexa680 at 5' and 3'"}, "[2]": {"tested_on": "T3, hPUF_MT(R1_S12N, R3→R5, R4→R6) R1 repeat S12N", "T3 sequence": "T2 sequence with S36N, R40Q", "conditions": "U>C>>G=A, purified recombinant protein, label: Alexa680 at 5' and 3'"}, "[3]": {"tested_on": "hPUF_MT(R2_N12C, R3→R5, R4→R6) R2 repeat N12C", "conditions": "A=U=C>>G, purified recombinant protein, label: Alexa680 at 5' and 3'"}, "hPUF_MT(R5_R13K)": {"biological_target": "hPUF_MT(R5_R13K) (UniProt Q14671)", "conditions": "Arg optimal for A-U; purified recombinant protein; label: Alexa680 at 5' and 3'"}, "[4]": {"biological_target": "T4, hPUF_MT(R6_Y13F) R6 repeat Y13F (UniProt Q14671)", "T4 sequence": "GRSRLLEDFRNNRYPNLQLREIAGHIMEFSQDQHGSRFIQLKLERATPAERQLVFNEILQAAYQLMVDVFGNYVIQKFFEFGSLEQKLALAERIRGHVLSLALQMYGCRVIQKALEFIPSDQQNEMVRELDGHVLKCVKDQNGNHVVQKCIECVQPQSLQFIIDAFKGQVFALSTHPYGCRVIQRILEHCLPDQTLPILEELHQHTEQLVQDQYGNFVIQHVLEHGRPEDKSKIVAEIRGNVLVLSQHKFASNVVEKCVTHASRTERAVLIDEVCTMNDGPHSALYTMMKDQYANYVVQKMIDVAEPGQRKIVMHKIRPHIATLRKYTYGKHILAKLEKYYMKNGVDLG", "conditions": "Tyr optimal for U-A; purified recombinant protein; label: Alexa680 at 5' and 3'"}, "[5]": {"biological_target": "T5, hPUF_MT(R6_Y13H) R6 repeat Y13H (UniProt Q14671)", "T5 sequence": "T4 sequence with F217H", "conditions": "Tyr optimal for U-A; purified recombinant protein; label: Alexa680 at 5' and 3'"}, "hPUF_MT(R6_Y13W)": {"biological_target": "T6, hPUF_MT(R6_Y13W) (UniProt Q14671)", "T6 sequence": "T4 sequence with F217W", "conditions": "Tyr optimal for U-A; purified recombinant protein; label: Alexa680 at 5' and 3'"}, "[6]": {"tested_on": "T7, hPUF_MT(R1_Q16E, R3→R5, R4→R6) R1 repeat Q16E", "T7 sequence": "T2 sequence with R40E", "conditions": "G>>U=C; purified recombinant protein; label: Alexa680 at 5' and 3'; variant of OTS-1511"}, "hPUF_MT(R3→R5, R4→R6)": {"tested_on": "T8, hPUF_MT(R3→R5, R4→R6)", "T8 sequence": "T2 sequence with R40Q", "conditions": "purified recombinant protein, label: Alexa680 at 5' and 3', variant of OTS-1511"}, "[7]": {"tested_on": "hPUF_MT(R3→R5, R4→R5_R13F, R5_R13F)", "conditions": "H=Y>R>F=W>K; purified recombinant protein; label: Alexa680 at 5' and 3'; variant of OTS-1511"}, "[8]": {"tested_on": "hPUF_MT(R3→R5, R4→R5_R13K, R5_R13K)", "conditions": "H=Y>R>F=W>K; purified recombinant protein; label: Alexa680 at 5' and 3'; variant of OTS-1511"}, "[9]": {"tested_on": "hPUF_MT(R3→R5, R4→R5_R13W, R5_R13W)", "conditions": "H=Y>R>F=W>K; Example 5-2 states W strongest; purified recombinant protein; label: Alexa680 at 5' and 3'; variant of OTS-1511"}, "[10]": {"tested_on": "T9, hPUF_MT(R3→RC, R4→RC, R5→RC)", "T9 sequence": "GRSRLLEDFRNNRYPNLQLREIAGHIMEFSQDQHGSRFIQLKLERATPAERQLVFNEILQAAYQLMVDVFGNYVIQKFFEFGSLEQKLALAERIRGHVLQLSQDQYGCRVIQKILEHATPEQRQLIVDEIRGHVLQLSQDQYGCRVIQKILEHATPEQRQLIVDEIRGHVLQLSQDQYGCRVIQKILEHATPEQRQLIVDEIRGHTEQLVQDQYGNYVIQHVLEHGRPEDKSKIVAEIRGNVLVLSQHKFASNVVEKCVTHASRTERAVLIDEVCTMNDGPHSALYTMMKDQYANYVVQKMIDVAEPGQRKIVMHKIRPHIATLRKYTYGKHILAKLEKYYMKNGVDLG", "conditions": "may be weaker than MT(R3→R5, R4→R5); purified recombinant protein; label: Alexa680 at 5' and 3'; variant of OTS-1511"}, "[11]": {"tested_on": "T10, hPUF_MT(R3→RC2, R4→RC2, R5→RC2)", "T10 sequence": "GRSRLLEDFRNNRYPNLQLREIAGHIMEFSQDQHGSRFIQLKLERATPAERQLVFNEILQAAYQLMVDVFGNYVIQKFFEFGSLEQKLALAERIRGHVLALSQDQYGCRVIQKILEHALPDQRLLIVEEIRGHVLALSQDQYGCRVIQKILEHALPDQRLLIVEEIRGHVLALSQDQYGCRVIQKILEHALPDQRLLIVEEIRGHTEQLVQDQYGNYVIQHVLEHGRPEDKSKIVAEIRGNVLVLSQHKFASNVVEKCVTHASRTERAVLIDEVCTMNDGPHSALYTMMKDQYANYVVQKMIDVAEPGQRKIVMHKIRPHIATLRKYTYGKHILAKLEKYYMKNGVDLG", "conditions": "may be weaker than MT(R3→R5, R4→R5); purified recombinant protein; label: Alexa680 at 5' and 3'; variant of OTS-1511"}, "hPUF_MT(1-5-5-5-5-6-7-8)": {"tested_on": "T11, hPUF_MT(1-5-5-5-5-6-7-8)", "T11 sequence": "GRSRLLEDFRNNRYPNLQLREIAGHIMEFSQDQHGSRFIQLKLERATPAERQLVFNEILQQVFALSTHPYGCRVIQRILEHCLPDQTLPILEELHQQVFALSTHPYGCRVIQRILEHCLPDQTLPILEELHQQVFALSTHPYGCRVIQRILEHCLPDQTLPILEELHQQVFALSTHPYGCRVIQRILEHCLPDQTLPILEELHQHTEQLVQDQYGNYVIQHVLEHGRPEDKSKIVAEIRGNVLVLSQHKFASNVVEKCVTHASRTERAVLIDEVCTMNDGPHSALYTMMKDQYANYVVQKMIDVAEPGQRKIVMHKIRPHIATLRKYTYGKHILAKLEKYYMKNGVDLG", "conditions": "weaker than WT; purified recombinant protein; label: Alexa680 at 5' and 3'; variant of OTS-1511"}}, "note": "Numbering of substitutions follows the chain as printed. A weaker result is weaker than the reference pair of the same experiment. For some of these results: Protein sequences can lack the tags named with them."}
{"sequence": "CCAGAAUUGUAUAUAUUCG [OTS-1511]", "values": [{"measurement": "binding result", "setting": "hPUF_MT(1-6-5-6-5-6-7-8)", "value": "binds more weakly"}, {"measurement": "binding result", "setting": "[1]", "value": "binds more weakly"}, {"measurement": "binding result", "setting": "[2]", "value": "binds more weakly"}, {"measurement": "binding result", "setting": "[3]", "value": "binds more weakly"}, {"measurement": "binding result", "setting": "hPUF_MT(R5_R13K)", "value": "binds more weakly"}, {"measurement": "binding result", "setting": "[4]", "value": "binds more weakly"}, {"measurement": "binding result", "setting": "[5]", "value": "binds more weakly"}, {"measurement": "binding result", "setting": "hPUF_MT(R6_Y13W)", "value": "binds more weakly"}]}
{"sequence": "CCAGAAUUGUAUAUCUUCG [OTS-2021]", "values": [{"measurement": "binding result", "setting": "[6]", "value": "binds more weakly"}, {"measurement": "binding result", "setting": "[2]; variant of OTS-1511", "value": "binds more weakly"}]}
{"sequence": "CCAGAAUUGUAUAUGUUCG [OTS-2020]", "values": [{"measurement": "binding result", "setting": "[1]; variant of OTS-1511", "value": "binds more weakly"}, {"measurement": "binding result", "setting": "[2]; variant of OTS-1511", "value": "binds more weakly"}, {"measurement": "binding result", "setting": "hPUF_MT(R3→R5, R4→R6); U=C>A>G at R1 position", "value": "binds more weakly"}]}
{"sequence": "CCAGAAUUGUAAAUAUUCG [OTS-1759]", "values": [{"measurement": "binding result", "setting": "[7]", "value": "binds more weakly"}, {"measurement": "binding result", "setting": "[8]", "value": "binds more weakly"}, {"measurement": "binding result", "setting": "[9]", "value": "binds more weakly"}, {"measurement": "binding result", "setting": "[10]", "value": "binds more weakly"}, {"measurement": "binding result", "setting": "[11]", "value": "binds more weakly"}]}
{"sequence": "CCAGAAUUGUAUAGAUUCG [OTS-2024]", "values": [{"measurement": "binding result", "setting": "[3]; variant of OTS-1511", "value": "binds more weakly"}]}
{"sequence": "CCAGAAUUGUAAAAAUUCG [OTS-1818]", "values": [{"measurement": "binding result", "setting": "hPUF_MT(1-5-5-5-5-6-7-8)", "value": "binds more weakly"}]}
{"sequence": "CCAGAAUUGUAUACAUUCG [OTS-2025]", "values": [{"measurement": "binding result", "setting": "[3]; variant of OTS-1511", "value": "binds more weakly"}, {"measurement": "binding result", "setting": "hPUF_MT(R3→R5, R4→R6); U>>C", "value": "binds more weakly"}]}
{"sequence": "CCAGAAUUGUAUAAAUUCG [OTS-2023]", "values": [{"measurement": "binding result", "setting": "[3]; weakest of R2 variants, variant of OTS-1511", "value": "binds more weakly"}]}
{"sequence": "CCAGAAUUGUAUAUUUUCG [OTS-2022]", "values": [{"measurement": "binding result", "setting": "[6]", "value": "binds more weakly"}, {"measurement": "binding result", "setting": "[1]; variant of OTS-1511", "value": "binds more weakly"}]}
